Test results published in paper PMC10486057.
These are yes or no findings as the source states them, for the method shown. In cells and extracts the contact can be indirect. Some results given as binding are weak or reduced against the parent protein; the word gives no strength.

Protein sequences, listed by entry. Tags and fused reporters are not part of them.
UniProt P35222: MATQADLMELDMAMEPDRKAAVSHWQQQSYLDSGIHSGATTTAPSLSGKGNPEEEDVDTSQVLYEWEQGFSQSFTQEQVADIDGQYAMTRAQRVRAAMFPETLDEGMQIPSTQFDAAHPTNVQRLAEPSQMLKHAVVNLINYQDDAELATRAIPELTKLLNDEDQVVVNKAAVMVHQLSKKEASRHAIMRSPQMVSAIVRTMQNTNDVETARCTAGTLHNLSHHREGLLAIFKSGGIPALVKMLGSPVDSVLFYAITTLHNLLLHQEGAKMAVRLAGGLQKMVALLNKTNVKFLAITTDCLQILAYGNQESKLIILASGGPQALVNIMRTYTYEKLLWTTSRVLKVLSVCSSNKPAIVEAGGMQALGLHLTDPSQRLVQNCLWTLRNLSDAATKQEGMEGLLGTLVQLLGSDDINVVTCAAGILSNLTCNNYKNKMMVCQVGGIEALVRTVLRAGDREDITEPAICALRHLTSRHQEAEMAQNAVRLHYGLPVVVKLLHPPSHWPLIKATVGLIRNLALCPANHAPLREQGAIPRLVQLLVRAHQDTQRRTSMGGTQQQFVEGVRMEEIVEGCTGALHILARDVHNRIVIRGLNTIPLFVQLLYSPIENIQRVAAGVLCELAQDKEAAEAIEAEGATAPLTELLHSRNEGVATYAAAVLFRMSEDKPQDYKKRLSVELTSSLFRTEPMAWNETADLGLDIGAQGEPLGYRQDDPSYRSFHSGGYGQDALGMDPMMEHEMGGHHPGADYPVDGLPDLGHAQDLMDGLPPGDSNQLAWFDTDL

Assays:
[1] = biological target: voltage-gated cardiac sodium channel (Nav1.5), α-subunit encoded by SCN5A (human (endogenous in iPSC-CMs)) (UniProt Q14524); test: co-IP; lysate of control iPSC-CMs (Pierce Classic Magnetic IP/Co-IP Kit, 1x lysis/wash buffer with protease inhibitor); incubated with anti-β-catenin or anti-Nav1.5 antibody 2 h at room temperature, magnetic beads 1 h; eluted proteins identified by Western blot
[2] = biological target: β-catenin (human (endogenous in iPSC-CMs)) (UniProt P35222); test: as above

| Substance | binding [1] | binding [2] |
| --- | --- | --- |
| β-catenin (from UniProt P35222 1-781) | binds | – |
| voltage-gated cardiac sodium channel (Nav1.5), α-subunit encoded by SCN5A (from UniProt Q14524 1-2016) | – | binds |
